Measured values taken from PMC5862840.
Results are given in words; binding and its absence hold for the method and conditions named. A result given as binding can be weak or reduced; the word gives no strength.

Target: uncarboxylated Ucma/GRP (ucUcma)
Experiment: ELISA; solid phase binding assay: ELISA plates coated with cUcma, ucUcma, BMP-2 and MGP (positive control), BMP-2 in the liquid phase, detected with an anti-BMP-2/4 antibody; both purified

B1: recombinant BMP-2 (ligand, UniProt P12643 283-396)
chain: QAKHKQRKRLKSSCKRHPLYVDFSDVGWNDWIVAPPGYHAFYCHGECPFPLADHLNSTNHAIVQTLVNSVNSKIPKACCVPTELSAISMLYLDENEKVVLKNYQDMVVEGCGCR
binding: binds weakly
